# Whole data set: some 33,000 sequences, median “E-score (-0.5 to 0.5)” near -8e-05, cut for the highest 2% near 0.23. The list shows a part of the results.
# Target: T1, Nrg2 (UniProt P38082)
# T1 sequence: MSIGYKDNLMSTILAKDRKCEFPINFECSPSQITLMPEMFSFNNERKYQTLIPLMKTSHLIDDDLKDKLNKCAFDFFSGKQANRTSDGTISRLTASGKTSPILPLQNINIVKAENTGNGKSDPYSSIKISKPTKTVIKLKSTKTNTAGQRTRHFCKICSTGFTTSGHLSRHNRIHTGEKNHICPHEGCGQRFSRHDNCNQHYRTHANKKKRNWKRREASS
# Assay: PBM E-score (8-mer binding enrichment) (E-score (-0.5 to 0.5)); higher = stronger / more preferred TF binding
# Conditions: protein concentration: 100 nM; construct: GST-full length
# Description: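 Universal 'all 10-mer' protein binding microarrays (Agilent AMADID 015681) probed with GST-tagged S. cerevisiae TFs (full-length or DBD) made by in vitro transcription/translation (PURExpress), about 100-200 nM. Bound TF was detected with fluorescent anti-GST. Each ungapped 8-mer (which stands for itself and its reverse complement) is scored by the PBM enrichment score (E-score), a modified Wilcoxon-Mann-Whitney statistic from -0.5 to +0.5, computed with the Universal PBM Analysis Suite. Scale: above 0.35 generally sequence-specific binding.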
row,Sequence,PBM E-score
1,GCCCATCA,-0.152
2,AACTGAAA,0.0615
3,CTCTCGCA,-0.0191
4,CCCAAGAC,-0.0333
5,GCGCCCGC,0.0535
6,GCGATCCC,-0.0756
7,GCAAGAAC,0.188
8,CCAGCGCG,0.066
9,CATCGGTC,-0.112
10,TCAATTGA,0.021
11,CAGAAATA,0.12
12,CTCCGAAG,0.00793
13,AACGGCAC,-0.244
14,ATGCCCTC,0.0243
15,GAGCTCGA,0.183
16,ATCATCGC,0.0399
17,CCTTTGTC,0.0208
18,CTACAGAA,0.0765
19,CCCTTGTA,-0.0812
20,CAGAGATC,-0.029
21,TCCGGGAA,0.0395
22,GTGATTTA,0.102
23,TAGGCACA,-0.109
24,CCCTCACG,-0.0421
25,AATCGTGG,0.2

row,Sequence,PBM E-score
1,AATTTTTG,0.0673
2,ATCCAGTA,0.0538
3,AGACGACG,-0.0421
4,GGGTTGAC,0.0552
5,AAAAGGAG,-0.182
6,GCATGCCC,0.0203
7,AAGCACGG,-0.0932
8,TGAGGACA,0.0644
9,AAGTCAAA,0.134
10,GCTCGCAC,0.005
11,TCTAACCA,0.147
12,CGGCCGGA,-0.0668
13,CCTACAGC,0.165
14,AAACATTA,-0.189
15,CCGCTTAG,-0.0665
16,CCCACAGG,-0.095
17,GGACCCGA,0.0929
18,GTGACAAA,0.0162
19,TCGTGAAA,-0.124
20,TAAATACA,-0.00857
21,TGTGCTAA,0.0809
22,GGACTTTA,-0.0473
23,AACTCTCG,0.114
24,AACCTTAG,-0.109
25,AGGCGTCG,0.0257

# A different layout for part of the listing above.
row | Sequence | PBM E-score
2 | ATCCAGTA | 0.0538
3 | AGACGACG | -0.0421
4 | GGGTTGAC | 0.0552
5 | AAAAGGAG | -0.182
6 | GCATGCCC | 0.0203

# More results follow.

row,Sequence,PBM E-score
1,CAGTTATG,0.116
2,AGTATGCG,0.0324
3,CCCCGCCA,0.0356
4,AGACTTAT,-0.275
5,AACGTGCT,-0.119
6,AAATAATA,0.203
7,GCACCCGA,-0.0914
8,CGGCAGAC,-0.234
9,AGCGGTTG,-0.028
10,ACCAACGG,-0.19
11,ATGGTGCC,-0.195
12,AGCAGGGG,-0.182
13,CTGTGCTC,0.0672
14,GAACTCAA,-0.0609
15,AGCGGCTG,-0.0903
16,GCACTAAC,-0.0635
17,GAAAGGGA,-0.0232
18,ATCCTGGC,-0.0281
19,AATTCAGC,0.044
20,AGCACGAC,-0.0799
21,AATTTTGT,0.0423
22,CACAGTCC,-0.0485
23,CCACTGTA,0.064
24,AATCGGAC,0.0294
25,GCGTATCA,0.0274

row,Sequence,PBM E-score
1,AAGTCCAC,-0.102
2,CAGCGGCA,-0.126
3,GGCGTGAA,-0.0326
4,ACTGAGCG,-0.158
5,ACCAGTGA,-0.135
6,CTAGCCTC,-0.262
7,GAATTGAA,0.0538
8,CGACTTGA,0.00238
9,ACGACGTG,-0.0647
10,CACACTAG,0.0401
11,TGACAGCA,0.00602
12,ACGAATGA,0.156
13,GGCTACAA,0.0783
14,ATCGGAAA,0.0359
15,GCCTACCC,-0.1
16,GTTCAAGA,0.029
17,ATGGAGCA,0.0393
18,CCGCCGTC,0.132
19,GCCCTACC,-0.103
20,AACTCCTC,-0.189
21,GCGGCATA,-0.0187
22,TAATGAAA,0.0368
23,TACTTACA,-0.0166
24,CAGGCGAG,-0.105
25,AGGACATC,0.108

row,Sequence,PBM E-score
1,CGCGCAGA,0.232
2,ATGGTGGG,-0.0902
3,AGGGCGAT,-0.148
4,CCATATCC,0.0805
5,GCCTTCGC,-0.0892
6,CGTGCGAA,0.00716
7,GGTACGTA,-0.169
8,CAAGGCAA,-0.0192
9,ACCCAAAA,-0.00454
10,ACCCGGCG,-0.112
11,TATATACA,0.207
12,AGCAGACT,-0.138
13,CAGACTGA,-0.118
14,CTATTTCC,0.255
15,ACATACGT,-0.236
16,CACACCCC,-0.227
17,AGGGGGTG,-0.443
18,ATAGGTCA,0.0225
19,ACAATGAC,-0.125
20,GAATTTAC,0.0505
21,CGCCTGAA,0.181
22,ACAGGCTG,-0.0514
23,GACAAGGC,-0.0661
24,ACGGGAAA,0.198
25,AATAACTG,0.114

row,Sequence,PBM E-score
1,GCTCGAGC,0.24
2,CGCGTCGC,-0.0522
3,ACCATTAT,-0.0283
4,AAGGTAAA,0.0112
5,TGACATAA,0.0755
6,AACAATCT,0.0946
7,TATTAACA,0.187
8,AGAAGTGG,-0.0614
9,GCACCTAA,-0.0998
10,AGTCGGTG,-0.168
11,AATGCGAG,0.107
12,CACGATGG,-0.105
13,ACGCGAAT,0.0458
14,GGACTAGA,0.0471
15,CTTAACCA,0.0122
16,ATGAAGGC,-0.092
17,AGATGACC,-0.0394
18,CGCCCTCA,-0.195
19,CGCAAGCA,-0.1
20,ACATGTAT,0.161
21,TAAACGAA,0.0719
22,ACCGCAGG,-0.00629
23,AACTTCTT,0.0847
24,AACATAGA,0.0686
25,CATGTGAC,-0.142

row,Sequence,PBM E-score
1,AGGGCTGA,-0.201
2,AGGTAGCG,-0.021
3,TACACATA,0.108
4,GAGGATAA,-0.0361
5,ACTGAACA,0.154
6,ACGCCGGC,0.103
7,GCATATGC,0.0211
8,AGCAAGAG,-0.089
9,AAGTAAAT,0.191
10,ATGGACAC,0.0509
11,CTGCTTTC,0.104
12,AGGGCCGA,0.0378
13,ACGCGGCA,-0.0886
14,CGGTAGCA,-0.0746
15,CAGGATGC,-0.0207
16,GAAAAGAA,0.144
17,AGCTGTGC,-0.0999
18,AAGCATGC,-0.135
19,CGACTAAG,-0.177
20,GGCACACC,-0.194
21,ATTTTCCC,0.124
22,GTATTTAA,-0.0904
23,TCTACGAA,-0.167
24,TCTGCAGA,-0.0464
25,AGATCTAG,-0.065

row,Sequence,PBM E-score
1,AGCATACT,-0.122
2,ATTTGATA,0.177
3,CTCGTACC,-0.108
4,CCATACTA,0.127
5,GCCTCGAC,-0.139
6,ACGTAAGG,-0.0233
7,AGTGGGAG,0.0845
8,AGTGTCGC,-0.0707
9,ACAACCTG,-0.125
10,ATAGATAT,0.106
11,ATACACCA,-0.096
12,CTACCGAC,-0.0909
13,ATTTTGAC,0.232
14,AAAACGGT,-0.0171
15,GCCCAGCC,-0.00793
16,GACTATAA,-0.0537
17,AACCACCC,-0.189
18,ACTGATCC,-0.00186
19,CAATTACG,-0.125
20,AATCACAG,0.0446
21,AAACAAAT,0.235
22,GCAAAACC,0.0964
23,CTGAAACC,0.114
24,CCCTAGAA,0.12
25,ACACGTAT,-0.0391

row,Sequence,PBM E-score
1,CAGAACGG,-0.0884
2,CGTCCCGA,-0.221
3,AAGTACCT,-0.135
4,CGAAATTC,-0.0122
5,ATGCTGGC,0.0313
6,ACGATCAC,-0.00414
7,AACTGCTT,-0.161
8,CGGAAATA,0.219
9,ATTGGTTA,0.174
10,AATAGCCC,-0.0669
11,TACGCGGA,-0.0704
12,ACGCCGCG,-0.0401
13,AGAATGTA,0.0349
14,GGTTGCAA,0.111
15,CCCGAACA,0.0929
16,ACATAACG,-0.00772
17,CCTTTATA,-0.161
18,CCCCGTGC,0.0799
19,CGCGTACC,-0.0867

# Random excerpt: five records from the list
row,Sequence,PBM E-score
16,ATCATCGC,0.0399
7,AAGCACGG,-0.0932
19,CGCGTACC,-0.0867
23,GACAAGGC,-0.0661
16,CACACCCC,-0.227

# Two neighbouring records from above, for reference:
row,Sequence,PBM E-score
8,CGGAAATA,0.219
9,ATTGGTTA,0.174
